Measurements taken from US20060270596A1.
Results are given in words; binding and its absence hold for the method and conditions named. In cells and extracts the contact can be indirect. Some entries that bind do so weakly or less than the wild type. For some assays here: Sequences can lack the tags named with a protein.

Amino acid sequences for entries named in this document (tags omitted). A change or cut given only in a name is not applied to a line headed by its entry. Residues count along the entry.
UniProt Q99616: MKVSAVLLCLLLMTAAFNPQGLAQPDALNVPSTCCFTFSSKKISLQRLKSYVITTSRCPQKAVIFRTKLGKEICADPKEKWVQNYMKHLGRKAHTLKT
UniProt O00585: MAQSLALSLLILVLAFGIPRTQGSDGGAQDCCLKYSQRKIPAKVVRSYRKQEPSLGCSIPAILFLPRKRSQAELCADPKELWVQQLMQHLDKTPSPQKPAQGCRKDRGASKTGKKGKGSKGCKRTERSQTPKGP
UniProt P13500: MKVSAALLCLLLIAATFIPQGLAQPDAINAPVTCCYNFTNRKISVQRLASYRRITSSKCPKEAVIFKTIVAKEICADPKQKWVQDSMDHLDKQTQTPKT
UniProt P48061, residues 1-89: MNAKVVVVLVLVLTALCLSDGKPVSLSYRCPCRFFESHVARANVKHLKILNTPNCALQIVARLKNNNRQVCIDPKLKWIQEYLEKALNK
UniProt Q9H0W7: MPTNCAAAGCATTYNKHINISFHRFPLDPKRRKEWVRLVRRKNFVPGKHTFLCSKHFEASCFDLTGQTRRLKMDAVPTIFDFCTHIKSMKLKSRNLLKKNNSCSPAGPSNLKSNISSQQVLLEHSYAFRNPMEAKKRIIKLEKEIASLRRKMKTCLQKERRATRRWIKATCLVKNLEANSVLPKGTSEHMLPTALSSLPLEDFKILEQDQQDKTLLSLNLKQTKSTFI

Assays:
[1] = biological target: T1, THAP1-C3 deletion mutant (amino acids 143-213) (human) (UniProt Q9NVV9); assay: GST pull-down, 35S-labelled in vitro translated molecule
T1 sequence: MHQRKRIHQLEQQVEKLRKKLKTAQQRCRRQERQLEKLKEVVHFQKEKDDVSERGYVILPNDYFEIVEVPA

[2] = biological target: chemokine CCL13 (UniProt Q99616); assay: as above
[3] = biological target: T2, chemokine CXCL11 (UniProt O14625); assay: as above
T2 sequence (looked up): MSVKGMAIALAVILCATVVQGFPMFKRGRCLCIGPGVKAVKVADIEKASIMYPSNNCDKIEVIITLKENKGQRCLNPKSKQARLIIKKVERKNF

[4] = biological target: human chemokine SLC/CCL21, mature form (amino acids 24-134) (human) (UniProt O00585); assay: as above
[5] = biological target: chemokine CCL2 (UniProt P13500); assay: GST pull-down, 35S-labelled in vitro translated chemokine
[6] = biological target: chemokine CXCL12 (UniProt P48061); assay: as above
[7] = biological target: T3, human chemokine MIG/CXCL9, mature form (amino acids 23-125) (human) (UniProt Q07325); assay: as above
T3 sequence: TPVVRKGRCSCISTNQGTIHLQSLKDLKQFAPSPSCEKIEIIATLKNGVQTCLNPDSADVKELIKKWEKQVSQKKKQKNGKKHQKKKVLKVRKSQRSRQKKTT

[8] = biological target: human chemokine SLC/CCL21, mature form (amino acids 24-134) (human) (UniProt O00585); assay: as above
[9] = biological target: T1, THAP1-C3 deletion mutant (amino acids 143-213) (human); assay: GST pull-down: in vitro translated 35S-labelled protein on the GST fusion immobilised on glutathione sepharose, SDS-PAGE, fluorography
[10] = biological target: chemokine CCL13 (UniProt Q99616); assay: as above
[11] = biological target: T2, chemokine CXCL11; assay: as above
[12] = biological target: human chemokine SLC/CCL21, mature form (amino acids 24-134) (human) (UniProt O00585); assay: as above
[13] = biological target: chemokine CXCL12 (UniProt P48061); assay: GST pull-down: in vitro translated 35S-labelled chemokine or cytokine on the GST fusion immobilised on glutathione sepharose, SDS-PAGE, fluorography
[14] = biological target: T3, human chemokine MIG/CXCL9, mature form (amino acids 23-125) (human); assay: as above
[15] = biological target: human chemokine SLC/CCL21, mature form (amino acids 24-134) (human) (UniProt O00585); assay: as above
[16] = biological target: T4, GST-Par4DD fusion protein (Par4 amino acids 250-342) (human) (UniProt Q96IZ0); assay: GST pull-down, 35S-labelled in vitro translated THAP2 on GST-Par4DD (FIG. 10C)
T4 sequence: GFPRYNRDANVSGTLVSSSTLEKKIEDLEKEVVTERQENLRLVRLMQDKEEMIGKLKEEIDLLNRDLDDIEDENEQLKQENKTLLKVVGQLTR

[17] = biological target: T4, GST-Par4DD fusion protein (Par4 amino acids 250-342) (human); assay: GST pull-down: in vitro translated 35S-labelled protein on GST-Par4DD immobilised on glutathione sepharose, SDS-PAGE, fluorography

Measured: binding

GST-THAP2 133-228 (chemokine-binding domain of THAP2) (from UniProt Q9H0W7 133-228)
not listed: [16] | [17]
binds: all other assays above

human THAP2, full length (from UniProt Q9H0W7 1-228)
binds: [16] | [17]
